Experimental data: patent US20190352376A1

B1: F211-10A9 (antibody, V domains shown)
VH: QIQLQQSGPELVKPGAPVKISCKASGYTFTDYYIHWVNQRPGQGLEWIGYIYPGNGHTVYNQKFKVRATLTADNPSSTAYLQLNSLTSEDSGVYFCAYDLFNYWGQGTLVTVSA
VL: DIVMTQSPSSLAMSVGQKVTMSCKSSQSLLNSDTQKNFLAWYQQKPGQSPKILVYFASTKESGVPDRFIGSGSGTDFTLTITSVQAEDLADYFCQQYYSIPLTFGAGTKLELK
B2: F211-11H12 (antibody, V domains shown)
VH: DVQLQESGPGLVKPSQSLSLTCSVTGYSITSDYYWNWIRQFPGNKLEWMAYIGYDGTKNYNPSLKNRISITRDTSKNQFFLKLNSVTTDDTATYYCTRDRANWDDYFDYWGQGTTLTVSS
VL: DIVMSQSPSSLAVSVGEKVTMSCKSSQSLLNSRNQKNHLAWYQQKPGQSPKLLIYWASTRESGVPDRFTGDGSGTDFTLTISSVKAEDLAVYYCQQYYTYRTFGGGTKLEIK

Molecular target: hemagglutinin of H1N1 Avian like Swine (influenza virus H1N1 Avian like Swine)
Test: Western blot; virus, MDCK cells

Binder | binding
B1 | binds
B2 | binds

Results are given in words; binding and its absence hold for the method and conditions named. A result given as binding can be weak or reduced; the word gives no strength.
